Data reported in publication doi:10.1101/2025.07.06.663356.
These are yes or no findings as the source states them, for the method shown. Binding seen in cells or lysates may run through a third protein. These calls come from enrichment with a bait or labelling near it, and not all partners need be listed. Values belong to the molecule of their own block, whether it stands above or below them.

Chains of the proteins cited; added tags and fusions are not shown.
UniProt Q8WUM4: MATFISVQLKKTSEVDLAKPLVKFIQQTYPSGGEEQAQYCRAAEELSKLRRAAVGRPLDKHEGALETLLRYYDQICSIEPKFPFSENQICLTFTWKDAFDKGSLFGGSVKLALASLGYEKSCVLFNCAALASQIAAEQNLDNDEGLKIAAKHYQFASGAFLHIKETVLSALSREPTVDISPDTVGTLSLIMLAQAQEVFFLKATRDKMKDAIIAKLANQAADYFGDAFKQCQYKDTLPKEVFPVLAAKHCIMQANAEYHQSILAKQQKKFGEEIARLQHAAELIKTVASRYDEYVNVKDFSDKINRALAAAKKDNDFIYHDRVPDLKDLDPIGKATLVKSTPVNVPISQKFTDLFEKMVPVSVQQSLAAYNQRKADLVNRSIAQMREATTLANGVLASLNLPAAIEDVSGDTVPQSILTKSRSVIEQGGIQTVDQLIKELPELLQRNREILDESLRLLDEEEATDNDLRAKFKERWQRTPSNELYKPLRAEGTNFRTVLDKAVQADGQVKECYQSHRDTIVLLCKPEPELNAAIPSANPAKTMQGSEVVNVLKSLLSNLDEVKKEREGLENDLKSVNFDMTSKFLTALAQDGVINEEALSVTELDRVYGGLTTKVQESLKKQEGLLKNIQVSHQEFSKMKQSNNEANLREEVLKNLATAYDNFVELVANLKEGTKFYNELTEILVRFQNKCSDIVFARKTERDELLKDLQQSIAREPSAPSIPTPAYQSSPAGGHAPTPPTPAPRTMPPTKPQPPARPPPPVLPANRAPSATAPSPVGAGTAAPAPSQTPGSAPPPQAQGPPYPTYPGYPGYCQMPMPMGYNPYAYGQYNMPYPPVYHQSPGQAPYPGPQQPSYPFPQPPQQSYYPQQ
UniProt Q96B97: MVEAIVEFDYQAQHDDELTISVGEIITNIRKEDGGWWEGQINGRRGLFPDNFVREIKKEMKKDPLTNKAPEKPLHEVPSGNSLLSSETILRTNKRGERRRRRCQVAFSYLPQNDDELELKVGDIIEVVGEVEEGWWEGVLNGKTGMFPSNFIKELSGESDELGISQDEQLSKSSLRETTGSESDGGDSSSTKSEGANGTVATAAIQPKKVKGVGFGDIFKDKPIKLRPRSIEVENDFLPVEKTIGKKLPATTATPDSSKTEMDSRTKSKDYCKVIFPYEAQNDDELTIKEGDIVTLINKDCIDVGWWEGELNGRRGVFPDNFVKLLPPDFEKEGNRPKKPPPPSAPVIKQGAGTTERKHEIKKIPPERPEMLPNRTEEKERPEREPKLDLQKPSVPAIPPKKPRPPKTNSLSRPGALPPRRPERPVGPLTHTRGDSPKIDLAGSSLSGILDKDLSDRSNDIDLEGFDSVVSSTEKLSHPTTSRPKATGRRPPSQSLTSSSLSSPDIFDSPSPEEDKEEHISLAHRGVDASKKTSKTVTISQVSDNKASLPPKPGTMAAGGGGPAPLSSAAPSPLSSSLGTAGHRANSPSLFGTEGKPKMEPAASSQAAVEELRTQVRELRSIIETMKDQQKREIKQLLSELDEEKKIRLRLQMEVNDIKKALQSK

Target: ALIX (ALG-2 interacting protein X), endogenous (human (endogenous in HCC1187, BT-549, MDA-MB-231, HeLa, HEK-293T)) (UniProt Q8WUM4)
Test: affinity purification with mass spectrometry

- binding: binds
Molecule: CIN85, endogenous (from UniProt Q96B97 1-665)

- binding: binds
B1: CEP55, endogenous (protein, UniProt Q53EZ4 1-464)
chain: MSSRSTKDLIKSKWGSKPSNSKSETTLEKLKGEIAHLKTSVDEITSGKGKLTDKERHRLLEKIRVLEAEKEKNAYQLTEKDKEIQRLRDQLKARYSTTTLLEQLEETTREGERREQVLKALSEEKDVLKQQLSAATSRIAELESKTNTLRLSQTVAPNCFNSSINNIHEMEIQLKDALEKNQQWLVYDQQREVYVKGLLAKIFELEKKTETAAHSLPQQTKKPESEGYLQEEKQKCYNDLLASAKKDLEVERQTITQLSFELSEFRRKYEETQKEVHNLNQLLYSQRRADVQHLEDDRHKTEKIQKLREENDIARGKLEEEKKRSEELLSQVQFLYTSLLKQQEEQTRVALLEQQMQACTLDFENEKLDRQHVQHQLHVILKELRKARNQITQLESLKQLHEFAITEPLVTFQGETENREKVAASPKSPTAALNESLVECPKCNIQYPATEHRDLLVHVEYCSK

- binding: binds
B2: CHMP4B, endogenous (protein, UniProt Q9H444 1-224)
chain: MSVFGKLFGAGGGKAGKGGPTPQEAIQRLRDTEEMLSKKQEFLEKKIEQELTAAKKHGTKNKRAALQALKRKKRYEKQLAQIDGTLSTIEFQREALENANTNTEVLKNMGYAAKAMKAAHDNMDIDKVDELMQDIADQQELAEEISTAISKPVGFGEEFDEDELMAELEELEQEELDKNLLEISGPETVPLPNVPSIALPSKPAKKKEEEDDDMKELENWAGSM
